Laboratory results: PubChem BioAssay AID504808 (Drosophila RNAi Screening Center, 2011)
The screen tested about 21,000 reagents; below is an unselected part of those with a known target gene and a result. In the full data, 18 (0.084%) were called active. 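Raw counts without plate normalisation, one of two replicates; the ratio scores behind the calls were not deposited.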 Names joined by + are all predicted targets of the reagent. The record does not give: the amount of reagent, the time to read-out.

Assay: 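Chromatin factors that keep E2F targets switched off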 (primary screen)
Cells: Drosophila S2 cells
Reagent: long dsRNA against Drosophila genes
Detection: 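Dual luciferase plate measurements; E2F-specific signal taken as firefly over Renilla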
Direction: E2F firefly: higher = more E2F reporter activity; Renilla normaliser: higher = more normaliser reporter signal
Call rule: 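Called active if the normalised E2F reporter went up by over 50%; the cutoff is arbitrary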

gene | dsRNA | E2F firefly, rep 1 | Renilla normaliser, rep 1 | call
Est-Q | DRSC11835 | 75663 | 3523 | inactive
Ca-beta | DRSC02406 | 1.62e5 | 5463 | inactive
Ca-beta | DRSC02407 | 1.53e5 | 5735 | inactive
Ca-beta | DRSC03285 | 1.51e5 | 5199 | inactive
CG15445 | DRSC20517 | 1.41e5 | 5515 | inactive
lectin-21Ca | DRSC00541 | 1.53e5 | 5691 | inactive
Tektin-A | DRSC01921 | 85533 | 4069 | inactive
CG5273 | DRSC18612 | 60976 | 3482 | inactive
pit | DRSC17025 | 1.33e5 | 8870 | inactive
CG14190 | DRSC19545 | 1.40e5 | 6022 | inactive
CG8289 | DRSC20101 | 1.53e5 | 5214 | inactive
Jon44E | DRSC07216 | 1.37e5 | 4653 | inactive
Smu1 | DRSC15803 | 69422 | 3371 | inactive
C15 | DRSC13495 | 64227 | 2847 | inactive
C15 | DRSC14169 | 93716 | 5979 | inactive
CG1316 | DRSC08304 | 99406 | 3441 | inactive
CG31111 | DRSC14649 | 69436 | 6738 | inactive
CG5079 | DRSC15713 | 60091 | 3810 | inactive
CG16965 | DRSC02547 | 90314 | 3980 | inactive
Drak | DRSC19778 | 1.26e5 | 6200 | inactive
CG14627 | DRSC18630 | 1.09e5 | 5562 | inactive
Nazo | DRSC14343 | 1.12e5 | 5671 | inactive
CG44014 | DRSC14995 | 1.24e5 | 5934 | inactive
CG6607 | DRSC16073 | 1.01e5 | 5907 | inactive
CG5388 | DRSC15789 | 1.27e5 | 6778 | inactive
MnM | DRSC08423 | 1.08e5 | 4355 | inactive
Nup214 | DRSC04421 | 96697 | 3627 | inactive
P5CS | DRSC11831 | 75234 | 4076 | inactive
P5CS | DRSC11832 | 1.39e5 | 7245 | inactive
CG30485 | DRSC06376 | 1.00e5 | 4309 | inactive
IFT57 | DRSC00720 | 1.29e5 | 4980 | inactive
CG5969 | DRSC11789 | 71947 | 3101 | inactive
CG15099 | DRSC06528 | 75795 | 3694 | inactive
CG12438 | DRSC02167 | 1.36e5 | 4760 | inactive
Spt3 | DRSC15465 | 1.09e5 | 5251 | inactive
CG10214 | DRSC14213 | 74991 | 2845 | inactive
CG34175 | DRSC00424 | 1.44e5 | 4985 | inactive
Ts | DRSC00795 | 1.52e5 | 4852 | inactive
ea | DRSC16939 | 1.11e5 | 5091 | inactive

As entered above:
Value of CG8289 [DRSC20101] under “call”: inactive
Result of IFT57 [DRSC00720] under “call”: inactive
Result of P5CS [DRSC11832] under “call”: inactive
For “E2F firefly, rep 1”, C15 [DRSC13495] shows 64227
Value of Est-Q [DRSC11835] in “E2F firefly, rep 1”: 75663
Entry of CG31111 [DRSC14649] in “call”: inactive

Additional reagents:
gene | dsRNA | E2F firefly, rep 1 | Renilla normaliser, rep 1 | call
beat-Vb | DRSC12940 | 85924 | 2591 | inactive
beat-Vb | DRSC14844 | 49677 | 3884 | inactive
beat-Vb | DRSC14845 | 1.09e5 | 5010 | inactive
mora | DRSC16594 | 1.22e5 | 6143 | inactive
CG16799 | DRSC06626 | 96800 | 4240 | inactive
gw | DRSC17135 | 858 | 728 | inactive
gw | DRSC17160 | 30436 | 4442 | inactive
CG34462 | DRSC10768 | 91866 | 3655 | inactive
Ote | DRSC07498 | 70839 | 3456 | inactive
CG9928 | DRSC03274 | 1.20e5 | 135 | inactive
Ir7f | DRSC18012 | 51566 | 3456 | inactive
CG43897 | DRSC10965 | 75559 | 4710 | inactive
CG43897 | DRSC10967 | 1.16e5 | 6483 | inactive
CG42816 + CG42815 | DRSC11230 | 1.68e5 | 8186 | inactive
CG14538 (retired record) | DRSC02396 | 1.60e5 | 5078 | inactive
obst-H | DRSC10935 | 1.72e5 | 7147 | inactive
obst-H | DRSC10940 | 1.71e5 | 7248 | inactive
Rrp40 | DRSC00074 | 1.30e5 | 6030 | inactive
Prm | DRSC08941 | 1.26e5 | 4730 | inactive
Prm | DRSC08942 | 1.24e5 | 4678 | inactive
Prm | DRSC11255 | 65104 | 3500 | inactive
CG5194 | DRSC10492 | 74840 | 3126 | inactive
CG10970 | DRSC17772 | 7631 | 736 | inactive
Spc25 | DRSC14164 | 1.21e5 | 6502 | inactive
CG8952 | DRSC20133 | 8502 | 748 | inactive
CG4267 | DRSC00647 | 1.64e5 | 6038 | inactive
CG5262 | DRSC11773 | 70340 | 3314 | inactive
alpha-Man-IIa | DRSC15393 | 1.45e5 | 6127 | inactive
CG14835 | DRSC10205 | 1.07e5 | 4132 | inactive
CG13000 | DRSC19519 | 2.00e5 | 7955 | inactive
CG9664 | DRSC00725 | 79039 | 3962 | inactive
WRNexo | DRSC16278 | 71186 | 3564 | inactive
CG14187 | DRSC10186 | 1.27e5 | 7309 | inactive
nopo | DRSC06918 | 64042 | 3191 | inactive
D | DRSC11132 | 1.65e5 | 7395 | inactive
18w | DRSC05029 | 82263 | 3631 | inactive
Lgr4 | DRSC18969 | 93953 | 2882 | inactive
Lgr4 | DRSC18970 | 78072 | 2217 | inactive
Lgr4 | DRSC19884 | 1.37e5 | 6958 | inactive
CG11249 | DRSC11645 | 1.33e5 | 6804 | inactive
Cadps | DRSC21057 | 1.42e5 | 7171 | inactive
CG33301 | DRSC02778 | 1.43e5 | 5304 | inactive
Septin4 | DRSC20205 | 1.72e5 | 6102 | inactive
CG12398 | DRSC19454 | 1.41e5 | 6221 | inactive
CG11373 | DRSC12170 | 1.41e5 | 7653 | inactive
